Compound in the experiment: CC1Cc2ccccc2N1C(=O)C1CCCN(C1)C(=O)CCl (mixture of isomers) [TRIM25 ligand 11 (diastereomer mixture)]
The experiment is described as follows: probe-labelled cysteine peptide fold change vs DMSO (competition) (log2 fold change); higher = less target engagement (more negative = stronger competition). Particulars: THP-1, incubation time: 4 h.

Protein sequences, listed by entry. Tags and fused reporters are not part of them. Lines headed by an entry give the natural chain unless they say otherwise; changes in a name come on top.
UniProt Q14149: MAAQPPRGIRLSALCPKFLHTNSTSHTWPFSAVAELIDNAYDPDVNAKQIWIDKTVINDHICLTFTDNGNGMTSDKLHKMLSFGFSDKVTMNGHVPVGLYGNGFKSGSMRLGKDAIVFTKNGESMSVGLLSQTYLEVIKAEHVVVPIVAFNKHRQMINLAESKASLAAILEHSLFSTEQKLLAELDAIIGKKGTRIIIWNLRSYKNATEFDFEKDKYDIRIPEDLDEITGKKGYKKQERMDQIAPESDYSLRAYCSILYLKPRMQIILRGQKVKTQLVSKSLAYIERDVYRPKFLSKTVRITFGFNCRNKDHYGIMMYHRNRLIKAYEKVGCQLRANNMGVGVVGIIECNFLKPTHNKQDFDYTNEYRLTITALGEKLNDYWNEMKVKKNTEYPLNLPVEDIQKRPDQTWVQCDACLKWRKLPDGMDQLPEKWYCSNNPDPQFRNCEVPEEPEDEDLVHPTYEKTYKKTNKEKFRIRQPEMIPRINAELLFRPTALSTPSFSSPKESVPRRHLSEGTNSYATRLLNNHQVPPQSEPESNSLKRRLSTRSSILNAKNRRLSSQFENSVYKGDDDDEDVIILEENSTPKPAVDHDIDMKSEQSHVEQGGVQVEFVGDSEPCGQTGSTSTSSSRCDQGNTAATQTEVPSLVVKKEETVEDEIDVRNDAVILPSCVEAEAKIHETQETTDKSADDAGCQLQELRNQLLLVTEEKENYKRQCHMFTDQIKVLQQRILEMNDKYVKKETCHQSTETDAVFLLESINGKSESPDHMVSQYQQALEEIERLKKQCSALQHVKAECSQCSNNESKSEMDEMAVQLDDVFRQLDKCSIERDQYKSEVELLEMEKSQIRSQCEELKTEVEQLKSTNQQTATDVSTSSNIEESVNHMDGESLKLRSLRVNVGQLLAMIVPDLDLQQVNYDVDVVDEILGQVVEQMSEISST
UniProt Q9BWT6: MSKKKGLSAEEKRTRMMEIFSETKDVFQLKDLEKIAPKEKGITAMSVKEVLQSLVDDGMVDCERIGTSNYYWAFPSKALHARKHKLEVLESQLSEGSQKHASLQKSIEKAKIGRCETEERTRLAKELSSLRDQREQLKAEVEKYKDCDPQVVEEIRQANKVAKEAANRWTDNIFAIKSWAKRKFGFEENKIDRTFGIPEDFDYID
UniProt Q9BU76: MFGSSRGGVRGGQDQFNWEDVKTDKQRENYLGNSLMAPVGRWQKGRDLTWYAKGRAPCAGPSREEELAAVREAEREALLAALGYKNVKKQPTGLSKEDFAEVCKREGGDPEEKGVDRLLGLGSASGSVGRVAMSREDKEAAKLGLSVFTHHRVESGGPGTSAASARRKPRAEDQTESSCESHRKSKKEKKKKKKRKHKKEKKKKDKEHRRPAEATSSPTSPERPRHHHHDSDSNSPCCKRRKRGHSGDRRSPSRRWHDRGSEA
UniProt Q9UL63, whole entry, looked up: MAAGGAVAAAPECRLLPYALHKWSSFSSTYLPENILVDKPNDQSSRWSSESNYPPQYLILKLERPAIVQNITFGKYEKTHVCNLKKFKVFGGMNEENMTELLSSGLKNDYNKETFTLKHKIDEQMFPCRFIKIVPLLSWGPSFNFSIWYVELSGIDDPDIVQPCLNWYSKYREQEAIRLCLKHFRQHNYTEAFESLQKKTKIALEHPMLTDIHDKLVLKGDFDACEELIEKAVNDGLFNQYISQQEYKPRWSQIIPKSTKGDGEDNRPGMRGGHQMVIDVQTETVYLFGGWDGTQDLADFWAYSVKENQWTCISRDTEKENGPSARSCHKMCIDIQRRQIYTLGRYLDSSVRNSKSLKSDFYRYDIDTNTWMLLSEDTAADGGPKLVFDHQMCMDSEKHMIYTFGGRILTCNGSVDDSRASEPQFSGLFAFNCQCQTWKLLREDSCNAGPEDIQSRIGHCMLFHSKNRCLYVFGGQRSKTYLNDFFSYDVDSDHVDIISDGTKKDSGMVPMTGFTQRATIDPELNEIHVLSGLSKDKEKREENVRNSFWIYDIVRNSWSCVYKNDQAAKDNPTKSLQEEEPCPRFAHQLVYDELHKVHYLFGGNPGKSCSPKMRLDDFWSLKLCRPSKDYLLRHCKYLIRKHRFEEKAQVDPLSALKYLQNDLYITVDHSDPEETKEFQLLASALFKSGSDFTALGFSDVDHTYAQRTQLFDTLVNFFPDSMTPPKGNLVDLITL
UniProt Q9Y4U1: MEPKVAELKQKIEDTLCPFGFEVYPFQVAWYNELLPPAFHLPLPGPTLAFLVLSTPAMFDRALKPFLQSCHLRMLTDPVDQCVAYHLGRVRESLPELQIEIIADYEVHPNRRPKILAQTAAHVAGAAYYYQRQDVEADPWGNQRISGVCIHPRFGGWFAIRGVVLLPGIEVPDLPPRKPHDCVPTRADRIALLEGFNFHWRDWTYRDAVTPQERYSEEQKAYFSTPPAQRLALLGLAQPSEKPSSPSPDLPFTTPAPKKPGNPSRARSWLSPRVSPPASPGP
UniProt Q8NHP6: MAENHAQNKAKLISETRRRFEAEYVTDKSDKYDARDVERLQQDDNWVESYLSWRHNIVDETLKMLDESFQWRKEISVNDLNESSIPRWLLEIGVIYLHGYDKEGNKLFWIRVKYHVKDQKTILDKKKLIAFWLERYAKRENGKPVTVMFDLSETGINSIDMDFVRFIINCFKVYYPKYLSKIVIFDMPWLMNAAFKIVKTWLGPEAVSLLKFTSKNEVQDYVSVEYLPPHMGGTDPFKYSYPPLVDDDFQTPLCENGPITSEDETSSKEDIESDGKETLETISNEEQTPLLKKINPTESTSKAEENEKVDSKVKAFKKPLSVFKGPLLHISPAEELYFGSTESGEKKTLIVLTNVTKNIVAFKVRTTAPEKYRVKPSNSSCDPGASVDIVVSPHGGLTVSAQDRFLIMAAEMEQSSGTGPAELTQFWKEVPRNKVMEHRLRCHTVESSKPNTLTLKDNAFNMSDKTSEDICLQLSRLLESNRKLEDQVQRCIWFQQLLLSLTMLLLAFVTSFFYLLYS
UniProt Q96T76: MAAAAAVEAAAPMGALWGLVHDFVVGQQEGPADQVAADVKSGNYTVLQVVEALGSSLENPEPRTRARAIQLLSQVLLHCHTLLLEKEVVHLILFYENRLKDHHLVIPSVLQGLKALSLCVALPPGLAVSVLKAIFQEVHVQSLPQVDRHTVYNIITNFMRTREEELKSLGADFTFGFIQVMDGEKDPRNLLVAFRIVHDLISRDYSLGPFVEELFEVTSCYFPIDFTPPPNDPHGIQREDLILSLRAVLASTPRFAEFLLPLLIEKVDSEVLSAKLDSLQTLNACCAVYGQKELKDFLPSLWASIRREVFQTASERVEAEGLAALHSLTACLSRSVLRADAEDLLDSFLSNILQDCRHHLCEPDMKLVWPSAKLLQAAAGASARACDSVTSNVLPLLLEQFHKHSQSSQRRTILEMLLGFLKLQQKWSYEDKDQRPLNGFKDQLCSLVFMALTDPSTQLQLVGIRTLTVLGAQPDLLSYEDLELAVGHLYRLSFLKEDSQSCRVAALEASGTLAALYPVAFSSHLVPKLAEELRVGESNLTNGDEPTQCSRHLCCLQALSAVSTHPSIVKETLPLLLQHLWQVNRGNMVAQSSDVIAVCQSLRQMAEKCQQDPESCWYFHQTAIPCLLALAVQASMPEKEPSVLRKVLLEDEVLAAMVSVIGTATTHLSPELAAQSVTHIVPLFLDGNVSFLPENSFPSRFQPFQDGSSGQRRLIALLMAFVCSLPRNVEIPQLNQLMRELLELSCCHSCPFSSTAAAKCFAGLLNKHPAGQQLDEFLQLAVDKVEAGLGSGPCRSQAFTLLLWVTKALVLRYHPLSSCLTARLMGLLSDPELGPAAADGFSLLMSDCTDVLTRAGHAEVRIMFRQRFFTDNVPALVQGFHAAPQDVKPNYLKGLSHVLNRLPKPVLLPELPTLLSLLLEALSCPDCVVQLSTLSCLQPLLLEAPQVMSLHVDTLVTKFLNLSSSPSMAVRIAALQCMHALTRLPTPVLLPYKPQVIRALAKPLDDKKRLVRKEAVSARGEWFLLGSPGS
UniProt Q9UBG0: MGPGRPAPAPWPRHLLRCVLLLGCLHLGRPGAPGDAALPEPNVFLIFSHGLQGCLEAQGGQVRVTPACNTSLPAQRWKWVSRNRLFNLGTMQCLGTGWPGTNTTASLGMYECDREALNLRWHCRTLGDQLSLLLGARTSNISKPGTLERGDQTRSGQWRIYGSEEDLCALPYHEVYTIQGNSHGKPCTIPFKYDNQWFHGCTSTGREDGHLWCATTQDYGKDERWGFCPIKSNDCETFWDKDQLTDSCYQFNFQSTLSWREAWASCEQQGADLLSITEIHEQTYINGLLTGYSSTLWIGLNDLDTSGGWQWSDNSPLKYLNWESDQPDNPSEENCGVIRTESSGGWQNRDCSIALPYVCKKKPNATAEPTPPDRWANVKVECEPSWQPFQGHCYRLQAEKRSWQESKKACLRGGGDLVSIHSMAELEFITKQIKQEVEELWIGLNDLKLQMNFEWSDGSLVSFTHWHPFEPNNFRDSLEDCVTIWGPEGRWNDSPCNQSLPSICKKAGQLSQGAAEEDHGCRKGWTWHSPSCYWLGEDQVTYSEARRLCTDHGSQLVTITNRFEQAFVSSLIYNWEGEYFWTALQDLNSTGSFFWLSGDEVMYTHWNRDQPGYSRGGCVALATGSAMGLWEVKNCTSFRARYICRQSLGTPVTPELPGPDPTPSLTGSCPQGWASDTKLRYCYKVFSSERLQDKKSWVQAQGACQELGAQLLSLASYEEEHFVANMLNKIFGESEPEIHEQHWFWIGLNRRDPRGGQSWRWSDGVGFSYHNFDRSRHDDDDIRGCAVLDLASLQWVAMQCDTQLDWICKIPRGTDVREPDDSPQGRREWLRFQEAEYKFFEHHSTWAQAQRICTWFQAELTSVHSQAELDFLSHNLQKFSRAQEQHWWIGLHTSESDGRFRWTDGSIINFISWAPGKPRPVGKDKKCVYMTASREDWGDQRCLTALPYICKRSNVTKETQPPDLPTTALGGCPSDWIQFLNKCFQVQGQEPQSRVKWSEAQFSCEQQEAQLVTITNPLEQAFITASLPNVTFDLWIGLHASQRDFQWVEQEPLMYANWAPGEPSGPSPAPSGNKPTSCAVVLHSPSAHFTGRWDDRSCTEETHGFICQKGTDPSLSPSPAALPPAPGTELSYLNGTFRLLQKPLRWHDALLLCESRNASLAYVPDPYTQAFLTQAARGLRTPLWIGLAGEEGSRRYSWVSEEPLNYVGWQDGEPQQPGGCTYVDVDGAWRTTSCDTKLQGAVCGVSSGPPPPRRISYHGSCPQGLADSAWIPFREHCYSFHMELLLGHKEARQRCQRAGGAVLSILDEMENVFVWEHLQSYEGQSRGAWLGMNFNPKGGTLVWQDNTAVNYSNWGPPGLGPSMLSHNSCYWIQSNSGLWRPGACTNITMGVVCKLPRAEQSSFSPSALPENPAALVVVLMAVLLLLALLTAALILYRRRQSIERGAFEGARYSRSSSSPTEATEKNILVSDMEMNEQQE
UniProt Q9HCE1: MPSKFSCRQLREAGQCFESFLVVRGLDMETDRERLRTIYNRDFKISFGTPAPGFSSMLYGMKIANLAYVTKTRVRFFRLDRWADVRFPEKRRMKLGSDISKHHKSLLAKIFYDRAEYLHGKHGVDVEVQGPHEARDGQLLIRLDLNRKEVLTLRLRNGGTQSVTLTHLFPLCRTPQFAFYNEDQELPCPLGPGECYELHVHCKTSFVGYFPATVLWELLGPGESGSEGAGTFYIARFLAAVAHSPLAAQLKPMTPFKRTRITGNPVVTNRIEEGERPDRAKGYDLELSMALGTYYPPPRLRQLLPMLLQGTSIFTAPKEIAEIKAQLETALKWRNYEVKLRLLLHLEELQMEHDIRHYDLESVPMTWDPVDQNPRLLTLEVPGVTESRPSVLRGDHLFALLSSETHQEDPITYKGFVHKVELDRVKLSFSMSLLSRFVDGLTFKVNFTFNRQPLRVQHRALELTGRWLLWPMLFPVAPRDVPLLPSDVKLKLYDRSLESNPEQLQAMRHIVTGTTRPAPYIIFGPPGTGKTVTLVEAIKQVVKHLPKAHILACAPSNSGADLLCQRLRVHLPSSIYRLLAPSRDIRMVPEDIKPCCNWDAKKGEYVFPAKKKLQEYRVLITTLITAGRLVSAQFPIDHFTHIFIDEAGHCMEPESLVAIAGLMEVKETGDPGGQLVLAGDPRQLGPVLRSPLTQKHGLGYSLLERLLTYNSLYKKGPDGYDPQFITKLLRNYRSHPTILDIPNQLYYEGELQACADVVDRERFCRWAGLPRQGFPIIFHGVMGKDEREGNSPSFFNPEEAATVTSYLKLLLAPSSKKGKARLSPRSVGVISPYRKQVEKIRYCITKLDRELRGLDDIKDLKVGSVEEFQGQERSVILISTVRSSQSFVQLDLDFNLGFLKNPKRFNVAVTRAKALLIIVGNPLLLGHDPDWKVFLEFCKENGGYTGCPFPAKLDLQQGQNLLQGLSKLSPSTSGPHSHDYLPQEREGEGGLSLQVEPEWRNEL

Some of the results follow.
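Note: competitive chemoproteomic profiling in live THP-1 cells with an iodoacetamide desthiobiotin (IA-DTB) probe, comparing probe-labelled peptide intensities in compound-treated cells against DMSO-treated controls.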

Turning to “MMADHC_Q9H3L0_261_HLGFSVDDLGCCK (UniProt Q9H3L0)”, the “probe-labelled cysteine peptide fold change” value reads like this: (10 µM) 0.000804; (50 µM) -0.161.

Regarding “MORC3_Q14149_413+416_RPDQTWVQCDACLK (UniProt Q14149)”, the “probe-labelled cysteine peptide fold change” value is, setting by setting: (10 µM) -0.0543; (50 µM) -0.0113.

For “MND1_Q9BWT6_147_DCDPQVVEEIR (UniProt Q9BWT6)”, the “probe-labelled cysteine peptide fold change” value by setting is: (10 µM) -0.111; (50 µM) -0.171.

For the target “MMTAG2_Q9BU76_58_APCAGPSREEELAAVR (UniProt Q9BU76)”, the “probe-labelled cysteine peptide fold change” value by setting is: (10 µM) -0.104; (50 µM) -0.251.

Regarding “MKS1_Q9NXB0_226_KYEHVLCTLK (UniProt Q9NXB0)”, the “probe-labelled cysteine peptide fold change” value (10 µM) was -0.0768 and the “probe-labelled cysteine peptide fold change” value (50 µM) stood at 0.279.

Turning to “MKLN1_Q9UL63_128_HKIDEQMFPCR (UniProt Q9UL63)”, the “probe-labelled cysteine peptide fold change” value was -0.0802 (10 µM) and 0.0349 (50 µM).

For “MICU1_Q9BPX6_275_SGLCSALTTYFFGADLK (UniProt Q9BPX6)”, the “probe-labelled cysteine peptide fold change” value reads like this: (10 µM) 0.0053; (50 µM) -0.0317.

Turning to “MORC3_Q14149_255_AYCSILYLK (UniProt Q14149)”, the “probe-labelled cysteine peptide fold change” value (10 µM) turned out to be 0.0806 and the “probe-labelled cysteine peptide fold change” value (50 µM) was found to be 0.181.

On to “MRPL39_Q9NYK5_152_SCAMMMGCVIER (UniProt Q9NYK5)”, for which the “probe-labelled cysteine peptide fold change” value reads like this: (10 µM) -0.0481; (50 µM) 0.0803.

Consider “MMACHC_Q9Y4U1_149_ISGVCIHPR (UniProt Q9Y4U1)”, for which the “probe-labelled cysteine peptide fold change” value is, setting by setting: (10 µM) -0.0467; (50 µM) 0.168.

In the case of “MRPL38_Q96DV4_321_HQETMTPAGLSFFQCR (UniProt Q96DV4)”, the “probe-labelled cysteine peptide fold change” value was -0.299 (10 µM) and -0.138 (50 µM).

As to “MKNK1_Q9BUB5_231_ICDFDLGSGMK (UniProt Q9BUB5)”, the “probe-labelled cysteine peptide fold change” value is -0.167 (10 µM) and -0.179 (50 µM).

Consider “MIS18BP1_Q6P0N0_918_SPEECQR (UniProt Q6P0N0)”, for which the “probe-labelled cysteine peptide fold change” value reads like this: (10 µM) -0.0309; (50 µM) 0.181.

On to “MIOS_Q9NXC5_854+856_DHAECPVSACTCK (UniProt Q9NXC5)”, for which the “probe-labelled cysteine peptide fold change” value runs as follows: (10 µM) 0.00797; (50 µM) 0.0234.

In the case of “MIS12_Q9H081_133_YKTELCTK (UniProt Q9H081)”, the “probe-labelled cysteine peptide fold change” value reads like this: (10 µM) -0.0461; (50 µM) 0.0357.

Take “MRPL27_Q9P0M9_88_CLYALEEGIVR (UniProt Q9P0M9)”: the “probe-labelled cysteine peptide fold change” value is, setting by setting: (10 µM) -0.126; (50 µM) 0.0351.

“MOSPD2_Q8NHP6_442_CHTVESSKPNTLTLK (UniProt Q8NHP6)”: the “probe-labelled cysteine peptide fold change” value (10 µM) turned out to be 0.0234 and the “probe-labelled cysteine peptide fold change” value (50 µM) is -0.101.

For “MMACHC_Q9Y4U1_82_MLTDPVDQCVAYHLGR (UniProt Q9Y4U1)”, the “probe-labelled cysteine peptide fold change” value by setting is: (10 µM) 0.049; (50 µM) 0.123.

For “MOCS3_O95396_193_YLVNDACVLAGRPLVSASALR (UniProt O95396)”, the “probe-labelled cysteine peptide fold change” value is, setting by setting: (10 µM) -0.0913; (50 µM) -0.0185.

For “MMS19_Q96T76_977_IAALQCMHALTR (UniProt Q96T76)”, the “probe-labelled cysteine peptide fold change” value (10 µM) worked out at 0.108 and the “probe-labelled cysteine peptide fold change” value (50 µM) was found to be 0.243.

As to “MRC2_Q9UBG0_532_GWTWHSPSCYWLGEDQVTYSEAR (UniProt Q9UBG0)”, the “probe-labelled cysteine peptide fold change” value is, setting by setting: (10 µM) 0.235; (50 µM) 0.09.

For “MKI67_P46013_3199_GKGEAGNSDSMCLR (UniProt P46013)”, the “probe-labelled cysteine peptide fold change” value (10 µM) was -0.13 and the “probe-labelled cysteine peptide fold change” value (50 µM) was -0.372.

As for “MORC3_Q14149_694_SADDAGCQLQELR (UniProt Q14149)”, the “probe-labelled cysteine peptide fold change” value is, setting by setting: (10 µM) -0.102; (50 µM) -0.326.

For the target “MPP6_Q9NZW5_236_CHFDYNPYNDNLIPCK (UniProt Q9NZW5)”, the “probe-labelled cysteine peptide fold change” value came to 0.344 (10 µM) and 0.195 (50 µM).

Turning to “MORC3_Q14149_15_LSALCPK (UniProt Q14149)”, the “probe-labelled cysteine peptide fold change” value is -0.151 (10 µM) and -0.136 (50 µM).

With “MRPL24_Q96A35_190_TYVPCLK (UniProt Q96A35)”, the “probe-labelled cysteine peptide fold change” value is -0.0871 (10 µM) and 0.0185 (50 µM).

On to “MOB4_Q9Y3A3_134_HTLDGAACLLNSNK (UniProt Q9Y3A3)”, for which the “probe-labelled cysteine peptide fold change” value is -0.19 (10 µM) and -0.629 (50 µM).

For “MICAL2_O94851_1059_PHFIHCK (UniProt O94851)”, the “probe-labelled cysteine peptide fold change” value is, setting by setting: (10 µM) 0.00568; (50 µM) 0.0284.

For the target “MRPL11_Q9Y3B7_50_GVSINQFCK (UniProt Q9Y3B7)”, the “probe-labelled cysteine peptide fold change” value was -0.157 (10 µM) and -0.264 (50 µM).

With “MRPL10_Q7Z7H8_180_TVPFLPLLGGCIDDTILSR (UniProt Q7Z7H8)”, the “probe-labelled cysteine peptide fold change” value (10 µM) was -0.00605 and the “probe-labelled cysteine peptide fold change” value (50 µM) was -0.0273.

Regarding “MOV10_Q9HCE1_172_NGGTQSVTLTHLFPLCR (UniProt Q9HCE1)”, the “probe-labelled cysteine peptide fold change” value worked out at 0.234 (10 µM) and 0.148 (50 µM).

As for “MRPL32_Q9BYC8_110+113_NNIDVCPECGHLK (UniProt Q9BYC8)”, the “probe-labelled cysteine peptide fold change” value is -0.0513 (10 µM) and 0.0174 (50 µM).

For “MIEF1_Q9NQG6_111_SLQTLPTDSSTFDTDTFCPPRPK (UniProt Q9NQG6)”, the “probe-labelled cysteine peptide fold change” value (10 µM) came out at 0.134 and the “probe-labelled cysteine peptide fold change” value (50 µM) came out at 0.0554.

For the target “MORC3_Q14149_349_ANNMGVGVVGIIECNFLKPTHNK (UniProt Q14149)”, the “probe-labelled cysteine peptide fold change” value by setting is: (10 µM) -0.167; (50 µM) -0.429.

As to “MKLN1_Q9UL63_469_CLYVFGGQR (UniProt Q9UL63)”, the “probe-labelled cysteine peptide fold change” value (10 µM) amounted to 0.0276 and the “probe-labelled cysteine peptide fold change” value (50 µM) was determined as 0.0158.
